From patent publication US20040162467A1, “Non-invasive transudate extraction” (priority 2001, published 2004) come the findings set out here.

Data set [1] in a line: Serum, transdermal and saliva samples from sheep before, during and after exercise. The method, then: (§1) Sodium lauryl sulfate (40%) and either a commercial ultrasound conductive gel (Aquasonic, Parker Lab., NJ 07004, USA) or a 10% ethanol gel (the two gels were alternated in use) are employed. These gels are designated SLS-UG and SLS-EG respectively herein. Collected SLS-UG and SLS-EG are assayed as for blood. Saliva was divided into two samples. The first sample is stored at −20° C. and assayed as for blood. The second sample is assayed at the time of experimentation using the apparatus and immunosensors described above.
(§2) Student t tests, ANOVA or Wilcoxon test for paired samples are made as appropriate. Statistical significance is taken at P≦0.05 level. For analysis across the exercise stress, data is grouped into pre, during and post exercise values as actual sample times relative to the exercise for transdermal and blood obtained values. For pre, during and post exercise grouping of saliva samples, a 20-min lag was allowed relative to blood and transdermal values in sheep and a 30-min lag in human subjects.
In the remaining 10 sheep, experimentation took place on three separate days, each 3 days apart. On days of experimentation, animals were penned as above and the jugular vein of the animal was catheterised. Animals were left to rest for 50 min and then a single ultrasound application applied for 1 min as above. […] A series of electrosonophoresis collections were made concurrently with blood collection from the jugular vein, every 5 min for a further 1 h. Saliva samples were collected on every second blood sample (i.e. every 10 min). At completion of this time, a human shepherd, intermittently for 30 min, then ran the animals around a paddock. During this 30 min, each animal was briefly restrained manually and sampled on all three parameters every 10 min (i.e. three samples repeated three times). At the end of this period, animals were repenned and rested for 10 min, and a further saliva collection was made. Following this saliva collection for a further 1-h period, collection as above, prior to exercise, was repeated. […]

The nature of data set [2]: Serum, transdermal and saliva samples from human subjects before, during and after exercise. As to the method: as §1, §2
Ten human volunteers (males aged 19-23, body weights 85-103 kg) were seated at 09:30 h. During the experiment, they were held at a room temperature of 20-22° C. An initial 1 min burst of ultrasound, as for the sheep (above), was made on the volar surface of the forearm, following application of SLS-EG mix. […]

Turning to “Insulin: endogenous hormone analyte measured in serum and exudate”, in data set [1], the Measurable in saliva entry is “not detectable” and the “Measurable in transdermal exudates” value is “measurable”. Further, in data set [1] (P≦0.05 for rise and decrease), the “Change with the exercise” value is on record as “decreased”. Also, in data set [2], the “Measurable in transdermal exudates” value was “measurable quantities”. The Change with exercise result in data set [2] (across exercise and recovery) is “decreased”.
